According to patent US9000188B2, “Monocyclic cyanoenones and methods of use thereof” (Trustees of Dartmouth College, priority 2008, dated 2015):

Assay: UV studies of Michael reactivity with dithiothreitol (DTT)
Format: physicochemical
Settings: for second UV absorption on addition of DTT (Michael adduct): 0.1 mM compound, pH 7.4 phosphate buffered saline, 1% ethanol; for intensity of the second absorption with DTT relative to MCE-1: around 330 nm

| SMILES | second UV absorption on addition of DTT (Michael adduct) | change of UV spectrum on addition of DTT (0.1 mM DTT) | change of UV spectrum on addition of DTT (1 mM DTT) | intensity of the second absorption with DTT relative to MCE-1 |
| --- | --- | --- | --- | --- |
| C#CC1(C)C=CC(=O)C(C#N)=C1 (centres unmarked) [MCE-1, 3-Ethynyl-3-methyl-6-oxocyclohexa-1,4-dienecarbonitrile] | gives the second UV absorption at a high wavelength | – | – | – |
| CC1(C)C=CC(=O)C(C#N)=C1 [MCE-2, reference compound] | do not give the second absorption | – | – | – |
| C#CC1(C)C=C(C#N)C(=O)CC1 (centres unmarked) [MCE-3, 3-Ethynyl-3-methyl-6-oxocyclohex-1-enecarbonitrile] | – | does not change | small red shift | – |
| CC1(C)C=C(C#N)C(=O)C(C)(C)C1 [MCE-5, 3,3,5,5-Tetramethyl-2-oxocyclohex-1-enecarbonitrile] | – | no apparent change | weak absorption at 275 nm | – |
| C#C[C@]12C=C(C#N)C(=O)C=C1[C@@]1(C)CCC(=O)C(C)(C)[C@@H]1CC2 [MCE-7] | show second absorptions | – | – | similarly intense as the corresponding absorption of MCE-1 |
| C#CC1(Cc2ccccc2)C=CC(=O)C(C#N)=C1 (centres unmarked) [MCE-13, 3-Benzyl-3-ethynyl-6-oxocyclohexa-1,4-dienecarbonitrile] | show second absorptions | – | – | a bit weaker than the corresponding absorption of MCE-1 |
| C=CC1(C)C=CC(=O)C(C#N)=C1 (centres unmarked) [MCE-15, 3-methyl-6-oxo-3-vinyl-cyclohexa-1,4-dienecarbonitrile] | do not give the second absorption | – | – | – |
